Experimental data from US8110573B2, “Pyrazole compounds that modulate the activity of CDK, GSK and aurora kinases” (Astex Therapeutics Limited, priority 2004, dated 2012).
Some of these results come from one statement about several compounds together.

Test: Solubilities of acid addition salts of 1-(2,6-difluorophenyl)-N-[...]-urea in water (visual)
Details: ambient temperature, 1 eq. acid, visual inspection

## 1-(2,6-difluorophenyl)-N-[3-(5-morpholin-4-ylmethyl-1H-benzimidazol-2-yl)-1H-pyrazol-4-yl]-urea [Ethanesulphonate]
  Solubility of salts of 1-(2,6-difluorophenyl)-N-[3-(5-morpholin-4-ylmethyl-1H-benzimidazol-2-yl)-1H-pyrazol-4-yl]-urea: > 100 mg/mL
